Assay results: paper PMC6053526
No signal at the amounts used counts as a negative. For some of these results: At least one verdict was read from the data and is not stated in words by the source. For some of these results: A weaker result is weaker than the reference pair of the same experiment. For some of these results: For at least one entry, the source does not settle the construct or the ends of the probe.

Sequences of proteins named here, by UniProt entry; tags and fusion partners are left off. A change or cut given only in a name is not applied to a line headed by its entry. Residues count along the entry.
UniProt Q93WU9: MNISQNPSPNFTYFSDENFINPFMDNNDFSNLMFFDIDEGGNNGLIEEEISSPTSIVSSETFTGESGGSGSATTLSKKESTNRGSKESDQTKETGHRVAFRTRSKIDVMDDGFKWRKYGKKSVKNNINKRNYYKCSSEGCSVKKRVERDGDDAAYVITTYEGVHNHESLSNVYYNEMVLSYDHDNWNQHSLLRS
UniProt Q8VWQ5, 86-173: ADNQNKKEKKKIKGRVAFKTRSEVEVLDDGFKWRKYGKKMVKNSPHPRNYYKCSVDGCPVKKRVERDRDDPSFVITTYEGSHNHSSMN

Legend:
[1] = molecular target: GST-AtWRKY51-C (Arabidopsis thaliana) (UniProt Q93WU9); assay: EMSA; settings: 5x buffer (3 uL in 14 uL): 20% glycerol, 5 mM MgCl2, 2.5 mM EDTA, 2.5 mM DTT, 250 mM NaCl, 50 mM Tris-HCl pH 7.5, 0.25 mg/ml poly(dI-dC); 0.5 ug protein; 10 min RT; recombinant protein; protein details: GST; label: 32P
[2] = molecular target: GST-AtWRKY50-C (Arabidopsis thaliana) (UniProt Q8VWQ5); assay: EMSA; settings: 5x buffer (3 uL in 14 uL): 20% glycerol, 5 mM MgCl2, 2.5 mM EDTA, 2.5 mM DTT, 250 mM NaCl, 50 mM Tris-HCl pH 7.5, 0.25 mg/ml poly(dI-dC), 0.5 ug protein, 10 min RT, recombinant protein, residues 86-173, protein details: GST (N-term), label: 32P

Row | Sequence | binding result [1] | binding result ([2]; almost abolished) | binding result [2]
1 | GATGTGGCGGCATATATTCTTCAGGACTTTTC (double strand) [fragment D] | no binding |  | 
2 | GGGGATGTGGCGGCATATATTCTTCAGGACCCTTC / GGGGAAGGGTCCTGAAGAATATATGCCGCCACATC [Dm1] |  | binds more weakly | 
3 | GGTGATCTATTGACTGTTTCTCTACGTCACTA (double strand) [fragment A] | no binding |  | 
4 | TTTCTCTACGTCACTATTTTACTTACGTCATA (double strand) [fragment B] | no binding |  | no binding
5 | TTTTACTTACGTCATAGATGTGGCGGCATATA (double strand) [fragment C] | no binding |  | no binding
